# Assay results taken from PMC7862700.
# The chains behind the UniProt entries cited, without tags or fusion partners. Where a name states a change or a piece, a line headed by the entry shows the natural chain unless it says otherwise.
# UniProt P41161: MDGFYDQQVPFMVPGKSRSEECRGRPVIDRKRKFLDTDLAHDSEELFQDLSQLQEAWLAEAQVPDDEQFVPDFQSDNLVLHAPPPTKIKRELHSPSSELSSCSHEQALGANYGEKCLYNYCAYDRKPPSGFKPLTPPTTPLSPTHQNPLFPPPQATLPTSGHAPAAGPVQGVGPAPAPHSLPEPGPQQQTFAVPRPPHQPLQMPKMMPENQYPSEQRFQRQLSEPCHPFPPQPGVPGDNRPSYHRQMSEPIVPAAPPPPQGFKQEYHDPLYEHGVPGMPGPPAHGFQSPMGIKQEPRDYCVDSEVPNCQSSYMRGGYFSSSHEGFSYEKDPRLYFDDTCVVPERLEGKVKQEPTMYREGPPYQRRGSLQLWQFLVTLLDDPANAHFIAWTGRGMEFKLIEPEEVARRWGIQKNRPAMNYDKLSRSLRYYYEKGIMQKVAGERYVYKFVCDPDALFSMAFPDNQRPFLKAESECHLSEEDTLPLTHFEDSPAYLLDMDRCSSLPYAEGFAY
# UniProt Q99607: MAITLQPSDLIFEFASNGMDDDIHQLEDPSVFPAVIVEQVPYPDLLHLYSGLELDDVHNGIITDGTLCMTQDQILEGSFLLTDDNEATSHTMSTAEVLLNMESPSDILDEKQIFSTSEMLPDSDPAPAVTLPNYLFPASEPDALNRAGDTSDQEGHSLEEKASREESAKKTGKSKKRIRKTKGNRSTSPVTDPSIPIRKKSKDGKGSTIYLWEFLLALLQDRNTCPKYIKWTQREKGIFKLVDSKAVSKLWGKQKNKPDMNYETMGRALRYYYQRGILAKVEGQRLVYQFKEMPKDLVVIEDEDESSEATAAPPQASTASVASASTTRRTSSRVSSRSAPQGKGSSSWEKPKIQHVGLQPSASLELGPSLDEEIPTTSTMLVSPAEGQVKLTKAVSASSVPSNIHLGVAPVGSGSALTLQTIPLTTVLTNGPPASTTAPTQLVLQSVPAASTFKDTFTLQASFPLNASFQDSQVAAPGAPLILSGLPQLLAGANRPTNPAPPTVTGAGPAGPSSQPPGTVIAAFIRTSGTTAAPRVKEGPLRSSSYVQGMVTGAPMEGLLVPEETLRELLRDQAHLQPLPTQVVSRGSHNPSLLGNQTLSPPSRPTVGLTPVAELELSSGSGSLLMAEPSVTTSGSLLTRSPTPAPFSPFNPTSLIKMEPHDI
# Only a part is listed here, and it is no random draw. At the low end of the ranking the order means little.
# Molecular target: ETV5 (UniProt P41161)
# Assay: DAPPL (digital affinity profiling via proximity ligation, sequencing)
# Conditions: 10 mM Tris-HCl pH 7.5, 50 mM NaCl, 1 mM DTT, 4% glycerol, room temperature, 30 min; GST-TFs on glutathione beads, 16-mer random dsDNA library, 0.1% …; high values mean tight binding; double strand, one strand shown; scale: fold enrichment (6-mer frequency, TF over GST control)
row,Sequence,binding signal
1,GTCGTT,0.695
2,GCCATG,0.698
3,GGTGAC,0.849
4,TTGAGT,0.669
5,CGTCGG,0.426
6,GGTGGG,0.656
7,CGGGAC,0.534
8,ATCGGC,0.644
9,TGGCGG,0.766
10,GTGTGG,0.628
11,TCAGAG,0.803
12,AGACTG,0.541
13,CGGACA,0.813
14,AGCGGA,0.874
15,TGTGAG,0.338
16,GCGGGT,0.636
17,GAGTTA,0.624
18,GCGGAC,0.738
19,GTAGAG,0.582

row,Sequence,binding signal
1,TGAGGT,0.608
2,GCAAGA,0.867
3,TTGTGA,0.74
4,TCAGGT,0.819
5,GGACAC,0.792
6,ACTGTG,0.498
7,TGGGAG,0.431
8,GACGGC,0.764
9,CCAAGG,0.831
10,ACGAGA,0.651
11,GCTGGA,0.784
12,GGGGCC,0.549
13,CAAGGC,0.841
14,CGAGCG,0.976
15,GTAAGA,0.812
16,AGGCGG,0.251
17,GATCGG,0.457
18,CGGGAA,0.787
19,CAGAGC,0.854

# Molecular target: ELF4 (UniProt Q99607)
# Assay: as above
# Conditions: 10 mM Tris-HCl pH 7.5, 50 mM NaCl, 1 mM DTT, 4% glycerol, room temperature, 30 min; GST-TFs on glutathione beads, 16-mer random dsDNA library, 0.1% …; high values mean tight binding; double strand, one strand shown; scale: fold enrichment (6-mer frequency, TF over GST control)
row,Sequence,binding signal
1,GTCGTT,0.682
2,GCCATG,0.854
3,GGTGAC,0.784
4,TTGAGT,0.719
5,CGTCGG,0.416
6,GGTGGG,0.62
7,CGGGAC,0.514
8,ATCGGC,0.701
9,TGGCGG,0.698
10,GTGTGG,0.583
11,TCAGAG,0.727
12,AGACTG,0.564
13,CGGACA,0.751
14,AGCGGA,0.676
15,TGTGAG,0.337
16,GCGGGT,0.629
17,GAGTTA,0.557
18,GCGGAC,0.673
19,GTAGAG,0.616

row,Sequence,binding signal
1,TGAGGT,0.64
2,GCAAGA,0.848
3,TTGTGA,0.85
4,TCAGGT,0.878
5,GGACAC,0.827
6,ACTGTG,0.489
7,TGGGAG,0.432
8,GACGGC,0.733
9,CCAAGG,0.922
10,ACGAGA,0.686
11,GCTGGA,0.837
12,GGGGCC,0.613
13,CAAGGC,0.793
14,CGAGCG,0.917
15,GTAAGA,0.813
16,AGGCGG,0.228
17,GATCGG,0.477
18,CGGGAA,0.736
19,CAGAGC,0.896

# Molecular target: T1, ETV2 (UniProt O00321)
# T1 sequence: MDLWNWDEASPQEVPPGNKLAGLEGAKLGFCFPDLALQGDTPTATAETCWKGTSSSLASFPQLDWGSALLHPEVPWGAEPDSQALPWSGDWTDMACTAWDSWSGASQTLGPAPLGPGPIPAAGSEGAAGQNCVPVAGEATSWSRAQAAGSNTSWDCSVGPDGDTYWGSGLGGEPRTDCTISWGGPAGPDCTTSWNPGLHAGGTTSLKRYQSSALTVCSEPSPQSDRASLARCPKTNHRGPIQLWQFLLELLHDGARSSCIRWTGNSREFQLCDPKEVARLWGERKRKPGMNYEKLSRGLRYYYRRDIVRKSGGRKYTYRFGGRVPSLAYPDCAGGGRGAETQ
# Assay: as above
# Conditions: 10 mM Tris-HCl pH 7.5, 50 mM NaCl, 1 mM DTT, 4% glycerol, room temperature, 30 min; GST-TFs on glutathione beads, 16-mer random dsDNA library, 0.1% …; high values mean tight binding; double strand, one strand shown; scale: fold enrichment (6-mer frequency, TF over GST control)
row,Sequence,binding signal
1,GTCGTT,0.772
2,GCCATG,0.7
3,GGTGAC,0.675
4,TTGAGT,0.676
5,CGTCGG,0.459
6,GGTGGG,0.614
7,CGGGAC,0.456
8,ATCGGC,0.705
9,TGGCGG,0.965
10,GTGTGG,0.62
11,TCAGAG,0.795
12,AGACTG,0.489
13,CGGACA,0.804
14,AGCGGA,0.857
15,TGTGAG,0.313
16,GCGGGT,0.668
17,GAGTTA,0.554
18,GCGGAC,0.75
19,GTAGAG,0.6

row,Sequence,binding signal
1,TGAGGT,0.506
2,GCAAGA,0.766
3,TTGTGA,0.78
4,TCAGGT,0.917
5,GGACAC,0.663
6,ACTGTG,0.564
7,TGGGAG,0.457
8,GACGGC,0.682
9,CCAAGG,0.875
10,ACGAGA,0.719
11,GCTGGA,0.895
12,GGGGCC,0.503
13,CAAGGC,0.884
14,CGAGCG,0.945
15,GTAAGA,0.889
16,AGGCGG,0.239
17,GATCGG,0.441
18,CGGGAA,0.688
19,CAGAGC,0.866
